PubChem BioAssay AID662 (National Center for Advancing Translational Sciences (NCATS), 2007)
The other results are listed elsewhere or left out. Shown are side measurements of this screen, not its main read-out; they come without a call. Most of these compounds were active or inconclusive in the main read-out, so they are no random draw. The note in brackets gives the kind of curve behind each potency; many fits are weak.

assay: Cell signaling CRE-BLA (Fsk stim); conditions: CHO CRE-bla reporter (cAMP response element driving beta-lactamase), forskolin EC10, beta-lactamase ratio; measured here: 460 nm blue channel
How it was run: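 Cells were plated overnight at 37 °C, exposed to compound titrations plus EC10 NKH 477 for 3 h, then given CCF4 dye for 2 h at room temperature. Blue/green (460/530 nm) ratio was converted to %Activity and AC50 values calculated.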

SMILES | AC50
O=C1c2ccccc2S(=O)(=O)N1CC(O)Cn1c2ccccc2c2ccccc21 (stereo not drawn) | 12.6 µM [falling, single point]
COc1ccc(C(=O)Nc2ccccc2C(=O)NCc2ccco2)cc1OC | 10 µM [rising, single point]
O=C(CSc1ncccn1)NCCc1ccccc1 | 1.58 µM [falling, partial curve]
CCn1c(SCC(=O)Nc2ccc3c(c2)OCCO3)nnc1-c1ccccn1 | 3.16 µM [rising, partial curve]
COc1cccc(-n2nnc3c(=O)n(Cc4ccc(C)cc4)cnc32)c1 | 12.6 µM [rising, single point]
CCNc1ccc(C(=O)OCC)cc1NC(=O)c1cccc(N(C)C)c1 | 12.6 µM [rising, single point]
CCOC(=O)CCCn1nc(C)n2c(cc3sccc32)c1=O | 7.94 µM [rising, partial curve]
Cc1cc(C)n(-c2ccc(Cl)c(C(=O)Nc3ccc(-c4nnc5n4CCCCC5)cc3)n2)n1 | 10 µM [rising, single point]
Cc1ccc(-c2nnc3n2N=C(c2ccccc2Br)CS3)cc1 | 10 µM [rising, partial curve]
CC(C)CC(=O)NC1(C(F)(F)F)C(=O)Nc2c1c(=O)[nH]c(=O)n2Cc1ccco1 (stereo not drawn) | 12.6 µM [falling, single point]
O=C(O)CCCC(=O)Nc1ccc(N2CCCC2)cc1 | 25.1 µM [rising, single point]
O=c1c2ccccc2nc(SCc2cn3ccsc3n2)n1-c1ccc(F)cc1 | 2.51 µM [rising, full curve]
CNC(=O)CSc1nnc(CCc2ccccc2)n1-c1ccccc1 | 0.0631 µM [rising, full curve]
Cc1nn(-c2cccc(Cl)c2)c2c1C(c1cccnc1)C(C#N)=C(N)O2 (stereo not drawn) | 12.6 µM [falling, single point]
CS(=O)(=O)Nc1cccc(-c2ccc3ncnc(N4CCOCC4)c3c2)c1 | 5.01 µM [rising, partial curve]
Cc1ccc(S(=O)(=O)c2nc(S(C)(=O)=O)sc2NCC2CCCO2)cc1 (stereo not drawn) | 0.316 µM [rising, partial curve, poor fit]
CCOC(=O)c1c(NC(N)=O)sc(C)c1C | 12.6 µM [rising, partial curve]
O=c1c(-c2cccc(Cl)c2)nc2cncnc2n1-c1ccccc1 | 10 µM [rising, partial curve]
COC(=O)c1c(C)n(-c2ccccc2)c2ccc(O)cc12 | 15.8 µM [rising, single point]
CCOC(=O)N1CCN(S(=O)(=O)c2ccc(F)c(C(=O)Nc3cccc(C)c3C)c2)CC1 | 7.94 µM [rising, partial curve]
Cc1onc(-c2ccccc2)c1C(=O)Nc1cc(C(F)(F)F)ccc1N1CCOCC1 | 12.6 µM [rising, single point]
CC(NC(=O)COc1ccccc1)C(=O)NC1=NCCS1 (stereo not drawn) | 0.00316 µM [falling, full curve, poor fit]

SMILES | AC50
O=S(=O)(c1cccs1)N1CN(Cc2cccs2)c2nc3ccccc3nc21 | 12.6 µM [rising, single point]
COCCCN1CN(S(=O)(=O)c2ccc(Cl)cc2)c2nc3ccccc3nc21 | 10 µM [rising, single point]
CCOc1ccccc1C1CC(=O)Nc2cc3c(cc21)OCCO3 (stereo not drawn) | 10 µM [rising, partial curve]
COc1cc(NC(=O)Nc2ccccc2OC)c(OC)cc1NC(=O)CN1CCCCC1 | 12.6 µM [rising, partial curve]
O=C1CCc2cc(S(=O)(=O)NCCC(=O)N3CCN(c4cccc(Cl)c4)CC3)ccc2N1 | 31.6 µM [falling, partial curve, poor fit]
CN(C)c1ccc(/C=C/c2cc[n+]([O-])cc2)cc1 | 10 µM [rising, partial curve]
CCOC(=O)c1cnc(SCc2ccc(C)cc2)nc1N | 25.1 µM [rising, single point]
COCCn1c(=O)c(-c2ccc(OC)cc2)nc2cnc(Nc3ccccc3)nc21 | 0.501 µM [rising, full curve]
COc1ccc(C)cc1NC(=O)CN(C)S(=O)(=O)c1cccs1 | 0.501 µM [falling, full curve, poor fit]
O=C(CN1CCN(C(=O)c2ccco2)CC1)Nc1ccc(Cl)c(C(F)(F)F)c1 | 5.01 µM [falling, partial curve]
COC(=O)NC1CSCC1OC(=O)CCN1C(=O)c2ccccc2C1=O (stereo not drawn) | 0.00631 µM [falling, full curve, poor fit]
CCOc1cc(NC(=O)c2ccco2)c(OCC)cc1NC(=O)Cc1cccc(OC)c1 | 12.6 µM [rising, partial curve]
CCOC(=O)c1cc2n(c1N)-c1ccccc1C2=O | 12.6 µM [rising, partial curve]
N#Cc1c(NC(=O)c2cc(C3CC3)on2)sc2c1CCC2 | 15.8 µM [rising, partial curve]
COc1cccc(CNc2nn[nH]n2)c1OC | 0.00398 µM [falling, full curve, poor fit]
O=C(NCC(c1cccnc1)N1CCN(c2ccccc2F)CC1)C1CCCCC1 (stereo not drawn) | 0.01 µM [falling, full curve, poor fit]
CCOC(=O)c1c(NC(=O)c2ccc(S(=O)(=O)N3CCOCC3)cc2)sc2c1CCN(C)C2 | 10 µM [rising, partial curve]
O=C(Nc1cccc2nsnc12)c1ccc2c(c1)OCCO2 | 12.6 µM [rising, partial curve]
CC(=O)Nc1ccc(NC(=O)C2CCCN(c3nnc(-n4cccc4)s3)C2)cc1 (stereo not drawn) | 20 µM [rising, single point]
Nc1nc(COc2ccc3ccccc3c2)cs1 | 0.00316 µM [rising, full curve, poor fit]
O=C(NCc1ccccn1)C1CCCN(Cc2cnn(-c3ccccc3)c2-n2cccc2)C1 (stereo not drawn) | 5.01 µM [rising, partial curve, poor fit]

An excerpt of the results above, for reference:
SMILES | AC50
O=C(CN1CCN(C(=O)c2ccco2)CC1)Nc1ccc(Cl)c(C(F)(F)F)c1 | 5.01 µM [falling, partial curve]
COC(=O)NC1CSCC1OC(=O)CCN1C(=O)c2ccccc2C1=O (stereo not drawn) | 0.00631 µM [falling, full curve, poor fit]
